From patent publication US7250429B2, “Aminomethyl-substituted thiazolobenzimidazole compounds” (Astellas Pharma Inc., priority 2002, dated 2007)
Where a name gives a salt, the structure may show the parent alone. The name of at least one read-out is uncertain. Some entries repeat one wording, which the source may state once for all of them.

Each molecule was assayed on STZ-loaded mice (assay: Streptozotocin (STZ)-induced diabetes model, tail pinch test). Conditions: 10 mg/kg p.o.; tail pinch test 30 minutes after administration; STZ-loaded ICR mice.
Assay type: in vivo
Method: • Thomsen C., Mulvihill E. R., Haldeman B., Pickering D. S., Hampson D. R. and Suzdak P. D., A pharmacological characterization of the mGluR 1 alpha subtype of the metabotropic glutamate receptor expressed in a cloned baby hamster kidney cell line., Brain Res., Aug. 13, 1993, 619(1-2), 22-8 2. Inhibitory Effect Upon Neuropathic Pain 1) Streptozotocin (to be Referred to as STZ Hereinafter)—Induced Diabetes Model
The test was carried out by modifying a part of a report (Pharmacol. Biochem. Behav., 39, 541-544, 1991). At a dose of 200 mg/kg, STZ was intraperitoneally administered to each of ICR mice of 4 weeks of age. A preliminary test of a tail pinch test was carried out in the afternoon of the day 2 weeks after the administration, and only animals showing a reaction latency of 3 seconds or less were submitted to the next day's test. Each compound was loaded by 10 mg/kg of oral administration, and the tail pinch test was carried out after 30 minutes of the administration to calculate a difference from the value of latency measured in the preliminary test.
In this connection, normal mice unloaded with STZ show a reaction latency of 6 to 7 seconds in average by this test. STZ-loaded mice having a reaction latency of 3 seconds or less in which distinct reduction in the pain threshold was observed were used in the test of this time.
An average reaction latency difference of 2 seconds or more was defined as + (positive action), and 1.5 seconds or more and less than 2 seconds as ± and less than 1.5 seconds as − (no action).

SMILES	Average reaction latency difference
CC(C)(C)CNC(=O)c1cn2c(nc3ccc(CNCC4CCOCC4)cc32)s1 [Example 28, N-Neopentyl-6-({[(tetrahydro-2H-pyran-4-yl)methyl]amino}methyl)thiazolo[3,2-a]benzimidazole-2-carboxamide dihydrochloride]	+ (An average reaction latency difference of 2 seconds or more was defined as + (positive action))
CN(CC(C)(C)C)C(=O)c1cn2c(nc3ccc(CNCC4CCOCC4)cc32)s1 [Example 17, N-Methyl-N-neopentyl-6-({[(tetrahydro-2H-pyran-4-yl)methyl]amino}methyl)thiazolo[3,2-a]benzimidazole-2-carboxamide dihydrochloride]	+ (An average reaction latency difference of 2 seconds or more was defined as + (positive action))
CN(CC(C)(C)C)C(=O)c1cn2c(nc3ccc(CNC[C@@H]4CCCO4)cc32)s1 [Example 11, N-Methyl-N-neopentyl-6-({[((S)-tetrahydro-2-furfuryl)methyl]amino}methyl)thiazolo[3,2-a]benzimidazole-2-carboxamide Dihydrochloride]	+ (An average reaction latency difference of 2 seconds or more was defined as + (positive action))
CN(CC(C)(C)C)C(=O)c1cn2c(nc3ccc(CNCC4(C)COC4)cc32)s1 [Example 7, N-Methyl-6-({[(3-methyloxetan-3-yl)methyl]amino}methyl)-N-neopentylthiazolo[3,2-a]benzimidazole-2-carboxamide]	+ (An average reaction latency difference of 2 seconds or more was defined as + (positive action))
CC(C)(C)CNC(=O)c1cn2c(nc3ccc(CNCC4OCCO4)cc32)s1 [Example 26, 6-{[(1,3-Dioxolan-2-ylmethyl)amino]methyl}-N-neopentylthiazolo[3,2-a]benzimidazole-2-carboxamide dihydrochloride]	+ (An average reaction latency difference of 2 seconds or more was defined as + (positive action))
CN(CC(C)(C)C)C(=O)c1cn2c(nc3ccc(CNC4COC4)cc32)s1 [Example 6, N-Methyl-N-neopentyl-6-[(oxetan-3-ylamino)methyl]thiazolo[3,2-a]benzimidazole-2-carboxamide 1.5 Fumarate]	+ (An average reaction latency difference of 2 seconds or more was defined as + (positive action))
CN(CC(C)(C)C)C(=O)c1cn2c(nc3ccc(CNC4CCOCC4)cc32)s1 [Example 15, N-Methyl-N-neopentyl-6-{[(tetrahydro-2H-pyran-4-yl)amino]methyl}thiazolo[3,2-a]benzimidazole-2-carboxamide dihydrochloride]	+ (An average reaction latency difference of 2 seconds or more was defined as + (positive action))
CN(CC1OCCO1)C(=O)c1cn2c(nc3ccc(CNCC4OCCO4)cc32)s1 [Example 37, N-(1,3-Dioxolan-2-ylmethyl)-6-{[(1,3-dioxolan-2-ylmethyl)amino]methyl}-N-methylthiazolo[3,2-a]benzimidazole-2-carboxamide dihydrochloride]	+ (An average reaction latency difference of 2 seconds or more was defined as + (positive action))
CC(C)(C)CNC(=O)c1cn2c(nc3ccc(CN[C@@H]4CCOC4)cc32)s1 [Example 23, (R)-N-Neopentyl-6-{[(tetrahydro-3-furyl)amino]methyl}thiazolo[3,2-a]benzimidazole-2-carboxamide dihydrochloride]	+ (An average reaction latency difference of 2 seconds or more was defined as + (positive action))
CC(C)(C)CNC(=O)c1cn2c(nc3ccc(CNC[C@H]4CCCO4)cc32)s1 [Example 24, (R)-N-Neopentyl-6-({[(tetrahydro-2-furyl)methyl]amino}methyl)thiazolo[3,2-a]benzimidazole-2-carboxamide dihydrochloride]	+ (An average reaction latency difference of 2 seconds or more was defined as + (positive action))
CN(CC1OCCO1)C(=O)c1cn2c(nc3ccc(CN[C@@H]4CCOC4)cc32)s1 [Example 34, N-(1,3-Dioxolan-2-ylmethyl)-N-methyl-6-{[(R)-(tetrahydro-3-furyl)amino]methyl}thiazolo[3,2-a]benzimidazole-2-carboxamide dihydrochloride]	+ (An average reaction latency difference of 2 seconds or more was defined as + (positive action))
CN(CC1OCCO1)C(=O)c1cn2c(nc3ccc(CNC4COC4)cc32)s1 [Example 31, N-(1,3-Dioxolan-2-ylmethyl)-N-methyl-6-[(oxetan-3-ylamino)methyl]thiazolo[3,2-a]benzimidazole-2-carboxamide]	+ (An average reaction latency difference of 2 seconds or more was defined as + (positive action))
CN(CC1OCCO1)C(=O)c1cn2c(nc3ccc(CNC[C@H]4CCCO4)cc32)s1 [Example 35, N-(1,3-Dioxolan-2-ylmethyl)-N-methyl-6-({[((R)-tetrahydro-2-furyl)methyl]amino}methyl)thiazolo[3,2-a]benzimidazole-2-carboxamide dihydrochloride]	+ (An average reaction latency difference of 2 seconds or more was defined as + (positive action))
CN(CC1OCCO1)C(=O)c1cn2c(nc3ccc(CNCC4CCOCC4)cc32)s1 [Example 39, N-(1,3-Dioxolan-2-ylmethyl)-N-methyl-6-({[(tetrahydro-2H-pyran-4-yl)methyl]amino}methyl)thiazolo[3,2-a]benzimidazole-2-carboxamide dihydrochloride]	+ (An average reaction latency difference of 2 seconds or more was defined as + (positive action))
